PubChem BioAssay AID1508597, Cure First – 2020

Test: 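Genes whose silencing sensitises or protects ovarian cancer cells against rucaparib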 (primary screen)
Cell system: human ovarian carcinoma lines grown from tumours: OCI-P5x (papillary serous) and OCI-C5x (clear cell)
Reagent: siRNA pool against human genes, 1.25 pmol siRNA per well
Time to read-out: 72 h or 96 h, depending on the cell culture
Challenge: rucaparib 20 µM (about IC30) or vehicle, present until read-out
Rucaparib or vehicle: Vehicle
Cell line: OCI-C5x (clear cell)
Read-out: 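ATP luminescence measured at 72 or 96 h according to the culture, then normalised and expressed as percent viability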
Direction: viability, normalised: higher = more viable cells remaining
Call rule: 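Active when normalised viability falls below 80 percent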
Calls: active = viability under 80%; inactive = viability 80% or more
This is a random part of the about 2,100 reagents, in one setting of the screen. 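Calls flag viability under 80% in either arm, not effects specific to rucaparib; the reference for percent is not stated.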 No sequences are given here. The record does not give: the 100% reference.

target gene	technical replicate	viability, normalised (%)	Outcome
EPHB1 (EPH receptor B1)	1	65.9	active
EPHB1 (EPH receptor B1)	2	69.5	active
EPHB1 (EPH receptor B1)	3	64.9	active
UBE2A (ubiquitin conjugating enzyme E2 A)	1	57.6	active
UBE2A (ubiquitin conjugating enzyme E2 A)	2	60	active
UBE2A (ubiquitin conjugating enzyme E2 A)	3	57.3	active
PMVK (phosphomevalonate kinase)	1	108	inactive
PMVK (phosphomevalonate kinase)	2	63	active
PMVK (phosphomevalonate kinase)	3	48.6	active
MORC1 (MORC family CW-type zinc finger 1)	1	64.5	active
MORC1 (MORC family CW-type zinc finger 1)	2	66.3	active
MORC1 (MORC family CW-type zinc finger 1)	3	74.4	active
CENPE (centromere protein E)	1	37.2	active
CENPE (centromere protein E)	2	26.7	active
CENPE (centromere protein E)	3	32.8	active
EEF1E1 (eukaryotic translation elongation factor 1 epsilon 1)	1	49.7	active
EEF1E1 (eukaryotic translation elongation factor 1 epsilon 1)	2	85.3	inactive
EEF1E1 (eukaryotic translation elongation factor 1 epsilon 1)	3	40.9	active
STK38L (serine/threonine kinase 38 like)	1	73	active
STK38L (serine/threonine kinase 38 like)	2	67.2	active
STK38L (serine/threonine kinase 38 like)	3	67.7	active
RAD51AP1 (RAD51 associated protein 1)	1	62.2	active
RAD51AP1 (RAD51 associated protein 1)	2	51.5	active
RAD51AP1 (RAD51 associated protein 1)	3	52.3	active
DMBT1 (deleted in malignant brain tumors 1)	1	42.6	active
DMBT1 (deleted in malignant brain tumors 1)	2	40.3	active
DMBT1 (deleted in malignant brain tumors 1)	3	41.6	active
POLE2 (DNA polymerase epsilon 2, accessory subunit)	1	64.8	active
POLE2 (DNA polymerase epsilon 2, accessory subunit)	2	32.2	active
POLE2 (DNA polymerase epsilon 2, accessory subunit)	3	29.3	active
SMARCD1 (SWI/SNF related BAF chromatin remodeling complex subunit D1)	1	49	active
SMARCD1 (SWI/SNF related BAF chromatin remodeling complex subunit D1)	2	50.8	active
SMARCD1 (SWI/SNF related BAF chromatin remodeling complex subunit D1)	3	61.7	active
PHKG1 (phosphorylase kinase catalytic subunit gamma 1)	1	58	active
PHKG1 (phosphorylase kinase catalytic subunit gamma 1)	2	51.6	active
PHKG1 (phosphorylase kinase catalytic subunit gamma 1)	3	62.6	active
PLK3 (polo like kinase 3)	1	74.6	active
PLK3 (polo like kinase 3)	2	71.5	active
PLK3 (polo like kinase 3)	3	71.6	active
